# Values of other authors, collected in US9409146B2, “Method for treating amyloid disease” (New York University, priority 2002, dated 2016).
# Conditions: naturally occurring, approximate; cited from earlier work
row,Molecule,Mean Plasma Levels
1,"Apolipoprotein E (dimer): Aβ binding compound, naturally occurring in plasma",54 µg/mL
2,"Apolipoprotein E (monomer): Aβ binding compound, naturally occurring in plasma",54 µg/mL
3,"Apolipoprotein J: Aβ binding compound, naturally occurring in plasma",100 µg/mL
4,"serum amyloid P component: Aβ binding compound, naturally occurring in plasma",34 µg/mL
5,"α 1-antichymotrypsin: Aβ binding compound, naturally occurring in plasma (protein, UniProt P01011 24-423, looked up) Alpha-1-antichymotrypsin: HPNSPLDEENLTQENQDRGTHVDLGLASANVDFAFSLYKQLVLKAPDKNVIFSPLSISTALAFLSLGAHNTTLTEILKGLKFNLTETSEAEIHQSFQHLLRTLNQSSDELQLSMGNAMFVKEQLSLLDRFTEDAKRLYGSEAFATDFQDSAAAKKLINDYVKNGTRGKITDLIKDLDSQTMMVLVNYIFFKAKWEMPFDPQDTHQSRFYLSKKKWVMVPMMSLHHLTIPYFRDEELSCTVVELKYTGNASALFILPDQDKMEEVEAMLLPETLKRWRDSLEFREIGELYLPKFSISRDYNLNDILLQLGIEEAFTSKADLSGITGARNLAVSQVVHKAVLDVFEEGTEASAATAVKITLLSALVETRTIVRFNRPFLMIIVPTDTQNIFFMSKVTNPKQA",40 µg/mL
